Results are given in words; binding and its absence hold for the method and conditions named. Some binding calls cover weakened binding; strength is not graded here.
Assays:
[1] = substrate: C terminal fragment of 25 kDa of TDP-43 (CTF25) from FTLD patient brain (human) (UniProt Q13148); assay: Western blot of SarkoSpin pellets of FTLD brain
BSA (bovine) = BSA (bovine) (UniProt P02769); assay: ELISA on BSA as control antigen

By UniProt entry, the sequences of proteins in these tests, tags left out. Where a name states a change or a piece, a line headed by the entry shows the natural chain unless it says otherwise. Residues count along the entry.
UniProt Q13148: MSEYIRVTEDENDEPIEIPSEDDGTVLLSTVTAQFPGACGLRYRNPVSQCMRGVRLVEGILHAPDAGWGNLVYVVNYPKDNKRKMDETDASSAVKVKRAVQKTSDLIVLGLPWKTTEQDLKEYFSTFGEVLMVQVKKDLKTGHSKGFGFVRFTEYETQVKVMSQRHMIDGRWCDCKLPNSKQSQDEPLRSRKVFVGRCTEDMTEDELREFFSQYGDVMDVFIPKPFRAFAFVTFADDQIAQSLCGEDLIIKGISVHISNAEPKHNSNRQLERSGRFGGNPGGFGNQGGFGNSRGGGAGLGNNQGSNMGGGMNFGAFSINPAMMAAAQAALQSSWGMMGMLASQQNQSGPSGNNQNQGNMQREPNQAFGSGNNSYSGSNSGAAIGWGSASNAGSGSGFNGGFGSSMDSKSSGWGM
UniProt P02769, residues 25-607: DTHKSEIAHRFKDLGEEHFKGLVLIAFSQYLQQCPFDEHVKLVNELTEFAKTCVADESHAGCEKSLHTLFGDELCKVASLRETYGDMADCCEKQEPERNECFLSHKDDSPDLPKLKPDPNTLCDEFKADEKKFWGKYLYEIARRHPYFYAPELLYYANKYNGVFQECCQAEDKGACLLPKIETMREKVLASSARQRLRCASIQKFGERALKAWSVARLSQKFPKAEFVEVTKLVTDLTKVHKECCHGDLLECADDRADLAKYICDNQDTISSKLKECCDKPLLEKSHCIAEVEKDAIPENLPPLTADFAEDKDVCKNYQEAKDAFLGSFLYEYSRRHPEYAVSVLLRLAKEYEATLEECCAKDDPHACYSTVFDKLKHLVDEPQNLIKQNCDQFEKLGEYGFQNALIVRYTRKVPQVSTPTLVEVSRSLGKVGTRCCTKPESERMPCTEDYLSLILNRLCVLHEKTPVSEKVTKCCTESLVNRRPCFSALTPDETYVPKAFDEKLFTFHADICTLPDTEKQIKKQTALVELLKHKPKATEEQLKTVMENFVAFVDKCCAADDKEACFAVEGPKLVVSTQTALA

binding [1]: binds
B1: antibody 31F3 (human IgG) (antibody, V domains shown)
VH: QVQLEQSGAEVKRPGASVKVSCKASGYTFTGYYLHWVRQAPGQGLEWMGRINPGSGGTKYAQKFQGRVSMTRDTSISTAYMEVNRLRPDDTAVYYCARYQVYGERGRYMDVWGKGTTVTVSS
VL: QSALTQPASVSGSPGQSITISCTGTSSDVGTYDLVSWYQQHPGKAPKLIIYEDNKRPSGLSNRFSGSKSGNTASLTISGLQADDEADYYCCSYAAISTLIFGGGTKVTVL
binding (BSA (bovine)): no binding (tested: log 3.3 ng/ml (about 2000 ng/ml))

From patent US20240150449A1
